Consider 15 sequences from a protein production outcome set (Wang et al. 2014).

A short description of the data set: label from the status in PepcDB records.
With “MAANATTNPSQLLPLELVDKCIGSRIHIVMKSDKEIVGTLLGFDDFVNMVLEDVTEFEITPEGRRITKLDQILLNGNNITMLVPGGEGPEV”, the protein production entry is on record as “failed”.

In the case of “MAIINRSKLTQTTMIKQILKRCSSLGKKQSSEYNDTHEHDGDSLPLDVPKGHFVVYVGGNRVRYVLPISFLTRPEFQLLLQQAEEEFGFDHNMGLTIPCEENETNSRDASKSDL”, the protein production result was “failed”.

On to “MESPPLYEISSSSSSEKPRHHFQSLDLFPNLNQNSCINNTLIEPLPLIDRINLNSNLDLNPNPLYAEEGEQEEEEEEEEDREVDVDLHIGLPGFGKPSNDAKQLKKRNGKEIATYDAGKGIENELSGKAYWIPAPEQILIGFTHFSCHVCFKTFNRYNNLQMHMWGHGSQYRKGPESLKGTQPRAMLGIPCYCCVEGCRNHIDHPRSKPLKDFRTLQTHYKRKHGHKPFSCRLCVGSSFYLSIVFEIGVWDINNLTLVDNDAAKKQLEFLMGGFKLLCQSEVQFLEMLTSMEETLKRMVCAVERIESRSISDDGRQLDLRIFTKGNPKSGLR”, for which the protein production result is listed as “failed”.

For the sequence “MGRELVDKHMDKKANSLTASSTGSSDDNKVPSPSTNEAAEVKECTEQNLVADDARLRQQGITETPGSHKSSVKPRVTAKTTVPKPFSLSAEKPRRAAVDNNSLGNGASHNSSSASRVSQLNSPLPTRRIPDHKMHHDEEDSFSVASSSATSIRSFKPKITIGVAPTFSSTSRLERRREFYQKLEEKQKALEAEKRENEKRLKEEQEAVTKQLRKNMAYKANPVPSFYQEGPPPKQPLKKFPLTRPKSPNLNRRKSCSDTVNASYQEVKGKHCARHRHSVGGCKDEVKTNSVPRTPNSSSKDQMRKSKKGTPKSEEVHEMFNSGHDGETGENGVGVVEE”, the protein production entry was “failed”.

As to “MKIIVGIGGVTNGGKTTLTNKLINSLPNCCVVHQDDFFKPQDKIEVEDGFKQYDVITALDMEAMMSTIDGWQKDPAKFERSHGINNELDSEAPQDAEKREILHILIVEGFLLYTYKPLIDLFTKCYFLSVPYDECKRRRSSRNYTVPDPPGLFDGHVWPMYIKHKNIMEELTVNVEQLDGTNTREELFNRVYGDILDLINSKE”, the protein production entry is “failed”.

With “MKSRMFMGRQKRQELLQKAEWLDTLSLHCGIGLWDAILHEGDAMHPKARWTWSSEFRRLCGYSSEAEFPNVVQSWSDRLHPDDVAPTFAAFTQTCQTGIGYDVKYRLKVKDGSYRWFRATGGVVLDENRKPRRACGSLVDIDELVKAENQKRDSIHQLANDFEGAIGKIVRTVSSASADLESSARQLATTADTSQHLAGNVAAASEEATSNVQSVASATDQLSSSIREISQQVQESARIAGEAVGQARNTTDRVSELSKAATRIGDVVELINTIAGQTNLLALNATIEAARAGEAGRGFSVVAAEVKALAEQTAKATGEIGQQISRIQSATQESVGAISEISGTIEKLSEISAHIASAVEEQGAATQEISRNIQQTAQGTERVSATILDVRRGAVETGTSSTQLLSSAQSLSQESGRLEDEVSRFLRTVRAS”, the protein production result was “failed”.

In the case of “MLLMASYKKDEQEENHKWYLDSGASNHMCGRKSMFAELDESVRGNVALGDESKMEVKGKGNILIRLKNGDHQFISNGYYIPSMKTNILSLGQLLEKGYDIRLKDNNLSIRDQESNLITKVPMSKNRMFVLNIRNDIAQCLKMCYKEESWLWHLRFGHLNFGGLELLSRKEMVRGLPCINHPKQGCEVVFKFKAK”, the protein production result is “failed”.

For the sequence “MRFAIEQLGLLFGCQRVHVIYHDPAKDCLHMAEEWCAVGIAPRLSTFQGVPVATYPWLWANLQDSEGVLVRDVEQMPPEAEMDKVSLQFDLVKSILVVPMVKDAQVLGYISMVHLHDNYGWNPEELNLAKLVGQFLAIAQARHQAETTLTQAKEAADAANRAKTEFLASISHELRTPLNAIIGFSQLLHRDP”, the protein production entry is recorded as “failed”.

As to “MSGGLAPSKSTVYVSNLPFSLTNNDLYRIFSKYGKVVKVTIMKDKDTRKSKGVAFILFLDKDSAQNCTRAINNKQLFGRVIKASIAI”, the protein production entry was “not failed”.

For the sequence “MSSGADGGGGAAVAARSDKGSPGEDGFVPSALGTREHWDAVYERELQTFREYGDTGEIWFGEESMNRLIRWMQKHKIPLDASVLDIGTGNGVFLVELAKFGFSNITGIDYSPSAIQLSGSIIEKEGLSNIKLKVEDFLNLSTQLSGFHICIDKGTFDAISLNPDNAIEKRKQYVKSLSRVLKVKGFFLITSCNWTKEELLNEFSEGWSTVAGFWLTAALTSWAQAIFSTSASRVGGTTGTHHHAWIIFVFLAETRFCHVVQAGLELLGSSDSPTWPPKVLGLYHARPSLAF”, the protein production entry is recorded as “failed”.

In the case of “MSTLTLPSDLRLPVTVFSGFLGAGKTTLLNRLLNNRDGLRVAVIVNDMSEVNIDAQLVRDGGAALSRTDETLVEFSNGCICCTLRDDLSKEVKRLALEQRYDYLLIESTGIGEPMPVAATFAVRDADGFCLSDVARLDTMVTVVDGSQFTALFSSMNTLADLGQQADSDDTRSLADLLGQQIEFADTIVISKCDLIDATQLARVRAVVRGLNRDAQIIEAHLGEVPLPQLVGTGRFDFTRAQLAPGWMRELRGEHTPETEEYGITSFVYRARRPFHPLRFNHLLAHGLSGVIRSKGFFWLASRMDWVGELSSVGSATRTQAAGFWYAARHRVDVHEENMPPQIGIAPLPYTELGWQRQQNDCWTAPLPAPHEVSDPGEYVAMQRLWHPQWGDRRQELAVIGLDMDKDVARNELDACLLSNEELRMGPMYWSALPDPFPQWRRLEHHHHHH”, the protein production entry is given as “failed”.

For the sequence “MTDYYEVLGVDRSASDDEIKKAYRKMSRKYHPDIAGPEFEDKFKEVNNAYDVLSDPKKRQMYDAGVDPNDPNAGGMHGGGFGGGFGDMGDIFSMFTGGGFGGTGGGPTPRTQPGRDALVSATIDLKTAVFGDTTHVKVNTFGLCQECGGTGCQNGTQPTQCPDCHGQGYAQRVVRTMLGQMMTTAPCERCEGHGTVIEKPCPSCLGHGRVRVTRNVGVAVPAGVANNTRLRLANQGEVGENGGVAGDLYVDIRIKPDDMFTRDDDDLHCWIKVPMSWAVLGHEVEIDTFDGRQTLDIPAGSQPDDTVTLKNLGVTHLDDKNERGDLVAHVVVEIPKKLSDDERELIERFGEMHDTDAQHVAVKSRPSSGAKKGFFSKLKDALR”, the protein production result is on record as “failed”.

In the case of “NLAAKVELVDIQREGAXALHGGNDAPQRLRHCAVAEVRPALRRAVAGERFRLEFFVPPKASRPKISIPLSAIIEVRTTMPLEMPEKDNTFVLKVENGAEYILETIDSLQKHSWVADIQGCVD”, the protein production result is listed as “not failed”.

For the sequence “TDVAARGIDINDLTHVVNYDIPQNPESYVHRIGRTGRAGKQGYAVTFVEPSEFRKFKYIQKIAKTEIRKEEVPDVKDIIGAKKRKIVSGIKEVLESGKYNDCENMAADLLEDADPQEVLSAVLKYALKDELSESNYK”, the protein production result is given as “failed”.

Regarding “YGYYSIGFARKDSGITSLADMKGKVFGFGDPNSTSGFLIPSIEIPQETGATMTSGDYFGEVKFTGGHEQTIVAVGNGEVDGGVTWADGLGAWEDGFNSGALRKAVDAGLVDMNDLVQIWQSKPIPEGPFVVRKALPA”, the protein production result is recorded as “failed”.
